The results in this text go back to the M2OR odorant receptor database.

Chains of the proteins cited; added tags and fusions are not shown. Chains listed by the source or under a name are the forms on record and can include a tag or linker.
O51E1, as listed by the source: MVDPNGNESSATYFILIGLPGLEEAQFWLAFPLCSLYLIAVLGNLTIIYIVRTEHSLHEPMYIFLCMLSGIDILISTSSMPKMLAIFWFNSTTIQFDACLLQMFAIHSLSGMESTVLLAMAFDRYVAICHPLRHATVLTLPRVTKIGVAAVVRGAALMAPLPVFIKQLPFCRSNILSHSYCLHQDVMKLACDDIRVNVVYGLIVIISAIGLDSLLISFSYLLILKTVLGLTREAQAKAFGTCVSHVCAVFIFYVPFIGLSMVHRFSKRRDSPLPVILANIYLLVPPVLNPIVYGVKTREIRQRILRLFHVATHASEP

Only a part is listed here, and it is no random draw. The calls were merged from several studies; some rest on single wells. The list shows a part of the results.

Conditions in all cases: stereoisomer not certain
The test system of assay [1] is T1, O4F17.
T1 sequence (whole entry): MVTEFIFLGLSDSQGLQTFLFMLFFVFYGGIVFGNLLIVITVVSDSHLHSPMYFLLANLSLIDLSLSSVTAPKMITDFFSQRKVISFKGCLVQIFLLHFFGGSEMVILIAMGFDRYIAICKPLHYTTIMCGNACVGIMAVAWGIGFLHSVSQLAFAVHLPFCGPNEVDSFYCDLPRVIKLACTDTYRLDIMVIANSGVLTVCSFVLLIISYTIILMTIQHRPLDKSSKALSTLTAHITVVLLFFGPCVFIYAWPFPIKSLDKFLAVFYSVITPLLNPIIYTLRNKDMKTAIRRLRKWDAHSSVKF
The method in brief:
(§1)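 Assay methods differ from source to source, frequently being transient luciferase assays in mammalian cell lines. For each receptor–molecule pair, the label responsive (active) applies when the original authors judged the measured signal statistically different from baseline, and non-responsive (inactive) applies otherwise.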

In assay [2] the test system is T2, O4F21.
T2 sequence (whole entry): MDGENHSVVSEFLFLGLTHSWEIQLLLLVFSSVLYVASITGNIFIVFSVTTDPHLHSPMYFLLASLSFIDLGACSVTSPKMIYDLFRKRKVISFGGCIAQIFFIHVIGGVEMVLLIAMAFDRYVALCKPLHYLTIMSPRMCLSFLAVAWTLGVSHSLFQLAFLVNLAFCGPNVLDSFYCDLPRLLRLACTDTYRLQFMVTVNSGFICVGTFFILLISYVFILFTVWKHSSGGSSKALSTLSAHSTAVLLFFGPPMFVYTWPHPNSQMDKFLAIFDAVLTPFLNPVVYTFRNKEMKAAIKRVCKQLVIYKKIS
The gist of the method: as §1

Assay [3] deals with T3, O51A4.
T3 sequence (whole entry): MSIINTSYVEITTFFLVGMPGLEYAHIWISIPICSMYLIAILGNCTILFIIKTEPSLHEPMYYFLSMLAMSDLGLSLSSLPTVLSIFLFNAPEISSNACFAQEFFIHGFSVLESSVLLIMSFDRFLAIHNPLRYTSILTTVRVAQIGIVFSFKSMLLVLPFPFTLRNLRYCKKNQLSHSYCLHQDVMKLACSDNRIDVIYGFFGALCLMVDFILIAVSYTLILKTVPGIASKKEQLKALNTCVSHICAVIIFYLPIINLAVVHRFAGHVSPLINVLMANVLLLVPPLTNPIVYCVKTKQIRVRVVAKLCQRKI
The gist of the method:
as §1

The subject of assay [4] is T4, O51B4.
T4 sequence (whole entry): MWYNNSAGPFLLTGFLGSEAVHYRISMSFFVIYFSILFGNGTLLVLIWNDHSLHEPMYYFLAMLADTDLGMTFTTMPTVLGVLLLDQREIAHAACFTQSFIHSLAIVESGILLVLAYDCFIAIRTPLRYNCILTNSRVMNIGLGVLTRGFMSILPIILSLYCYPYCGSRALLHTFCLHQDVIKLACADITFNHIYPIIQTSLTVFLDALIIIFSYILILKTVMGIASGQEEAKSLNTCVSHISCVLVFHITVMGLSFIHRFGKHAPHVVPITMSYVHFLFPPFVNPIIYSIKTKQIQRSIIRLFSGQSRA
The method in brief: as §1

For assay [5], the system named is T5, O51B5.
T5 sequence (whole entry): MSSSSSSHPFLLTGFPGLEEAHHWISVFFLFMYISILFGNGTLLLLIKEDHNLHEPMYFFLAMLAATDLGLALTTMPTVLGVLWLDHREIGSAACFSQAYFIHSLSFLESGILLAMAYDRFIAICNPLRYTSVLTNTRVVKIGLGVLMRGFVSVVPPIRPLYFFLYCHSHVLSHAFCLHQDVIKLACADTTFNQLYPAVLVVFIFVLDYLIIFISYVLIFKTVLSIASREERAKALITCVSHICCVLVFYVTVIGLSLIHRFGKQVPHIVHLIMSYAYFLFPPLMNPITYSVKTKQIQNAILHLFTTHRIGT
The method in brief:
as §1

Assay [6] relates to T6, O51B6.
T6 sequence (whole entry): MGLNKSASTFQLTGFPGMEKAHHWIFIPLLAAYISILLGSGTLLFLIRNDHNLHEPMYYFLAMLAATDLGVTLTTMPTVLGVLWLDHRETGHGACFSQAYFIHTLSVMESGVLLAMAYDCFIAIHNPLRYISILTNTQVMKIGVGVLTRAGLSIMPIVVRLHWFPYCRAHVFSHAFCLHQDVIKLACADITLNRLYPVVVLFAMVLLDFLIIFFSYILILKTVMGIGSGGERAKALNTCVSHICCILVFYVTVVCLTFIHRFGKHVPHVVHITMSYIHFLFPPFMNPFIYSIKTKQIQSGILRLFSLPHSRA
The method in brief: as §1

Assay [7] relates to T7, O51E1.
T7 sequence (whole entry): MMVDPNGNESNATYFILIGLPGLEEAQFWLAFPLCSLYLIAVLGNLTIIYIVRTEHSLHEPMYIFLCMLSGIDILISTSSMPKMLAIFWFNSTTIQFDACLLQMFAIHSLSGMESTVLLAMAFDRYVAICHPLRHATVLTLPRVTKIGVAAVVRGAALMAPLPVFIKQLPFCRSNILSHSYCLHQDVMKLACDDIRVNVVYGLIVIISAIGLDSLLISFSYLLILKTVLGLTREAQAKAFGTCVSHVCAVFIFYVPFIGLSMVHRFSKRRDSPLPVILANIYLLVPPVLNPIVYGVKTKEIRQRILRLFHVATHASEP
The method in brief:
as §1

The subject of assay [8] is T8, O51F1.
T8 sequence (whole entry): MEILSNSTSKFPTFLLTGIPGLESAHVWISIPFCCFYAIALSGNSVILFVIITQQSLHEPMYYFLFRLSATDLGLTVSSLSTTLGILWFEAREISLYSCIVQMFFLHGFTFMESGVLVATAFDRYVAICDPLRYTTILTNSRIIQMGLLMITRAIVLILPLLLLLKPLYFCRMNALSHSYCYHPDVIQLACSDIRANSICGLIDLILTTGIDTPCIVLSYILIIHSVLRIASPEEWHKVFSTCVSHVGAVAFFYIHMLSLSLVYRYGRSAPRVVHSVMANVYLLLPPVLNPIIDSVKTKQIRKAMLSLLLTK
The gist of the method: as §1

The subject of assay [9] is T9, O51F2.
T9 sequence (whole entry): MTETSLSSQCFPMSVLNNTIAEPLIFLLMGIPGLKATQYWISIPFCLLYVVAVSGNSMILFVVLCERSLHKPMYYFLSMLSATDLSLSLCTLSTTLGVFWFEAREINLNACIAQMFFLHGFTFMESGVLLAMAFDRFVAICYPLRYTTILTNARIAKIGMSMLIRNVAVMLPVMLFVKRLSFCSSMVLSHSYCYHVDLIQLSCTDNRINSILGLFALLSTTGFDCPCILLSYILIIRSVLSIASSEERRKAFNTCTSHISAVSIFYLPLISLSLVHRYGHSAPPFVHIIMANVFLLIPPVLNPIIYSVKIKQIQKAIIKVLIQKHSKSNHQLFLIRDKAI
The method in brief:
as §1

Assay [10] relates to O51E1. The method in brief:
as §1
The source holds these as a separate data set.

`CCCCO`: in assay [1], the “odorant receptor agonist call” value was “active”. Moreover, the “odorant receptor agonist call” value in assay [2], in assay [3], in assay [4], in assay [5], in assay [6] and in assay [7] was “inactive” throughout. Further, the “odorant receptor agonist call” value in assay [8] and in [9] was “inactive” in each case.
On to `CC(C)CCC(=O)O`, for which the “odorant receptor agonist call” value in assay [1] and in assay [6] was “active” throughout. Further, the “odorant receptor agonist call” value in [2], in assay [3], in assay [4], in assay [5], in assay [7] and in [8] was “inactive” throughout. Also, the “odorant receptor agonist call” value in assay [9] is “inactive”.
Turning to `CC12C=CCC1C1CCC3=CC(=O)CCC3(C)C1CC2` (centres undefined), the “odorant receptor agonist call” value in assay [1], in [2], in assay [3], in assay [4], in assay [5] and in assay [6] was “inactive” in each case. Further, the “odorant receptor agonist call” value in assay [7], in [8] and in [9] was “inactive” throughout.
In the case of `CCCCCCCCOC(C)=O`, the “odorant receptor agonist call” value in assay [1], in assay [2], in [3], in [4], in assay [5] and in assay [6] was “inactive” throughout. Moreover, the “odorant receptor agonist call” value in assay [7], in assay [8] and in assay [9] was “inactive” each time.
As for `CCCCCCOC(=O)CCC`, the “odorant receptor agonist call” value in assay [1], in assay [2], in [3], in assay [4], in assay [5] and in assay [6] was “inactive” in each case. In addition, the “odorant receptor agonist call” value in assay [7], in assay [8] and in assay [9] was “inactive” throughout.
With `CC(C)CC(=O)O`, the “odorant receptor agonist call” value in [1], in assay [2], in assay [3], in [4], in [5] and in assay [6] was “inactive” in each case. Further, the “odorant receptor agonist call” value in assay [8] and in assay [9] was “inactive” throughout. Besides, the “odorant receptor agonist call” value in assay [7] and in [10] was “active” each time.
`COc1cc(C)ccc1O`: the “odorant receptor agonist call” value in assay [1] was “active”. Moreover, the “odorant receptor agonist call” value in assay [2], in assay [3], in assay [4], in [5], in assay [6] and in assay [7] was “inactive” throughout. Moreover, the “odorant receptor agonist call” value in [8] and in assay [9] was “inactive” each time.
With `C=CC(C)(O)CCC=C(C)C` (centres undefined), the “odorant receptor agonist call” value in assay [1], in assay [2], in [3], in [4], in assay [5] and in [6] was “inactive” in each case. In addition, the “odorant receptor agonist call” value in [7], in assay [8] and in [9] was “inactive” throughout.
With `CCCCCC(=O)O`, the “odorant receptor agonist call” value in assay [1], in assay [2], in [3], in assay [5], in assay [6] and in [7] was “inactive” each time. Further, the “odorant receptor agonist call” value in assay [8] and in [9] was “inactive” each time. In addition, the “odorant receptor agonist call” value in assay [4] was “active”.
With `COC(=O)c1ccccc1O`, the “odorant receptor agonist call” value in assay [1], in [2], in [3], in assay [4], in assay [5] and in assay [6] was “inactive” in each case. The “odorant receptor agonist call” value in assay [7], in assay [8] and in assay [9] was “inactive” in each case.
As to `O=CCc1ccccc1`, the “odorant receptor agonist call” value in [1], in [2] and in [6] was “active” throughout. The “odorant receptor agonist call” value in [3], in [4], in assay [5], in assay [7], in assay [8] and in assay [9] was “inactive” throughout.
Take `CCCCCOC(C)=O`: the “odorant receptor agonist call” value in assay [1], in assay [2], in assay [3], in assay [4], in assay [5] and in assay [7] was “inactive” throughout. The “odorant receptor agonist call” value in assay [8] and in [9] was “inactive” throughout. For the same molecule, the “odorant receptor agonist call” value in assay [6] is “active”.
